# In the supplement of paper PMC10849652:
# Protein sequences, listed by entry. Tags and fused reporters are not part of them. Lines headed by an entry give the natural chain unless they say otherwise; changes in a name come on top.
# UniProt I6L899: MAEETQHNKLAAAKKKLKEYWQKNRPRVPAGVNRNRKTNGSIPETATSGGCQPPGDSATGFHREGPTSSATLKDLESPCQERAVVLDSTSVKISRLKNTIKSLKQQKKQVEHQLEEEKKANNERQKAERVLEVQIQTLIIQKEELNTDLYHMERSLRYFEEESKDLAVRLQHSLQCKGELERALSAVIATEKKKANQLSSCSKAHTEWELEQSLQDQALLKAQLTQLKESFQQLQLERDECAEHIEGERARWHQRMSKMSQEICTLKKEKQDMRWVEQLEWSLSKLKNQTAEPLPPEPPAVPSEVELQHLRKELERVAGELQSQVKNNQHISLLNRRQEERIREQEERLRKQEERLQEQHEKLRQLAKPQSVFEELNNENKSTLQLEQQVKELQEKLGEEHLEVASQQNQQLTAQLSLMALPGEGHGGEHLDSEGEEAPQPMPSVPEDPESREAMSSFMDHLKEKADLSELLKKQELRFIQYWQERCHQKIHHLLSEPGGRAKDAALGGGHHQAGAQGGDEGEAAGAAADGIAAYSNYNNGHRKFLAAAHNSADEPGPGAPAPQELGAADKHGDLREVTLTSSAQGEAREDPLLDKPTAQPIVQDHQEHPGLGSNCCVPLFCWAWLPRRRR
# UniProt P43250, whole entry, looked up: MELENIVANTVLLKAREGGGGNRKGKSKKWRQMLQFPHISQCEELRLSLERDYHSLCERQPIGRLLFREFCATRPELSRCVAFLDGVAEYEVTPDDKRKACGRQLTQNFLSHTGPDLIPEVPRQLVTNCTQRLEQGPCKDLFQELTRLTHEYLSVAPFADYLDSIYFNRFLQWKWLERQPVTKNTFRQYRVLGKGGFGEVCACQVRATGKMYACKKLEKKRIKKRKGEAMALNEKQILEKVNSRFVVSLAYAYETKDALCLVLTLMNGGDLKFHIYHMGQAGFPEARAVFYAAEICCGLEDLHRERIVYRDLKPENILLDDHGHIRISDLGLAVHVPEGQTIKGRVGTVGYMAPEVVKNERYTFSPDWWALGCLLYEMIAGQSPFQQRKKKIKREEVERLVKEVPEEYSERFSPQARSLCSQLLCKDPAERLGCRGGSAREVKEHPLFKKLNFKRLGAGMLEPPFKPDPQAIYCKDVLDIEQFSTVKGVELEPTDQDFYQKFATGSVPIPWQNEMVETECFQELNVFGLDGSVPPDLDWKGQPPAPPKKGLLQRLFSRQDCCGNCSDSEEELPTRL
# UniProt Q68CQ7: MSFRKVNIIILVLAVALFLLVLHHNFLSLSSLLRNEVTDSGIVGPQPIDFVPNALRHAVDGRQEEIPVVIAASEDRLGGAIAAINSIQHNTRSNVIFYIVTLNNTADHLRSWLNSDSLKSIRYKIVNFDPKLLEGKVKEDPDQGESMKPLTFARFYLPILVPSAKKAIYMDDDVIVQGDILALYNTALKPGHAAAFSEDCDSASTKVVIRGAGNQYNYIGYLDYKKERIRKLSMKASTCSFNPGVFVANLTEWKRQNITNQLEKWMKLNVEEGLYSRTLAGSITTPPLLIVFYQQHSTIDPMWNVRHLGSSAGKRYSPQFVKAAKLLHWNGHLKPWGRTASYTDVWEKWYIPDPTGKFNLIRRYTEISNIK
# UniProt Q15743: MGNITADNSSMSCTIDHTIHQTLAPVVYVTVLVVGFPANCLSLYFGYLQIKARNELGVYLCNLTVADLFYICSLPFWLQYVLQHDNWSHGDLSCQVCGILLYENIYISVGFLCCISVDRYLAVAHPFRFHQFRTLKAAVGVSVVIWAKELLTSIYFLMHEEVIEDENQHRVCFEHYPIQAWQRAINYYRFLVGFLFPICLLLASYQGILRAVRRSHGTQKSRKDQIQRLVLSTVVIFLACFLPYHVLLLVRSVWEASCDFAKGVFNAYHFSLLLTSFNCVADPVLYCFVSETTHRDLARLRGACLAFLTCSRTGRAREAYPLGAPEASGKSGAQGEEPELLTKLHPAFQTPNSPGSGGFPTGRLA
# UniProt Q9NPB8: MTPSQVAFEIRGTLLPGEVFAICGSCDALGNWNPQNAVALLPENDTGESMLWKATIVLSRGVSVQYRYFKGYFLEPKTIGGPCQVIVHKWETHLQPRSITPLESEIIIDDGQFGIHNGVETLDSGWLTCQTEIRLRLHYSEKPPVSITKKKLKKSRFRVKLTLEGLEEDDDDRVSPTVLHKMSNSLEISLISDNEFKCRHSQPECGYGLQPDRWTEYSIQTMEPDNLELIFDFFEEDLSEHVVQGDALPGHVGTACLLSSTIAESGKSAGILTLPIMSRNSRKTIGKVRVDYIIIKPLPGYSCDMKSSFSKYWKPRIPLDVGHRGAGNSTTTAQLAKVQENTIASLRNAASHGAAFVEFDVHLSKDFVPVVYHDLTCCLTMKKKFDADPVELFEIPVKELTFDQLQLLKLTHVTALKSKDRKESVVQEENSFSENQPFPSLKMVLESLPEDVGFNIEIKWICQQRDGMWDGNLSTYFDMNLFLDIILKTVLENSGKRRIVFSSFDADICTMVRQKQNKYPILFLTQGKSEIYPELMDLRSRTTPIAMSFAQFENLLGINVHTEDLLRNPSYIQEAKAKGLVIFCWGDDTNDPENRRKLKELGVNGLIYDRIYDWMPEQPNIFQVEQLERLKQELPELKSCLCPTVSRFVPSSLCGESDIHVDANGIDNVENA
# UniProt Q8NBJ4: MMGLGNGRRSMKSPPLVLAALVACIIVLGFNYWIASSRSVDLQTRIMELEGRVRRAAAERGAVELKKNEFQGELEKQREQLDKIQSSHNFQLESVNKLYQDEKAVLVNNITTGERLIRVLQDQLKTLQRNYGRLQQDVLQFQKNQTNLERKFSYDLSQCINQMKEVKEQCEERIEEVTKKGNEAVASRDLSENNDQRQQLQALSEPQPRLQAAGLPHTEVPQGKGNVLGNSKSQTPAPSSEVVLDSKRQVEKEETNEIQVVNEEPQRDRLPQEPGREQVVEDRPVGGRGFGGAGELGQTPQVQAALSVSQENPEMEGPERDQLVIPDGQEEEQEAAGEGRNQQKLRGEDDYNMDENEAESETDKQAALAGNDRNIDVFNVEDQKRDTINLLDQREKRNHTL
# UniProt Q96CP6, whole entry, looked up: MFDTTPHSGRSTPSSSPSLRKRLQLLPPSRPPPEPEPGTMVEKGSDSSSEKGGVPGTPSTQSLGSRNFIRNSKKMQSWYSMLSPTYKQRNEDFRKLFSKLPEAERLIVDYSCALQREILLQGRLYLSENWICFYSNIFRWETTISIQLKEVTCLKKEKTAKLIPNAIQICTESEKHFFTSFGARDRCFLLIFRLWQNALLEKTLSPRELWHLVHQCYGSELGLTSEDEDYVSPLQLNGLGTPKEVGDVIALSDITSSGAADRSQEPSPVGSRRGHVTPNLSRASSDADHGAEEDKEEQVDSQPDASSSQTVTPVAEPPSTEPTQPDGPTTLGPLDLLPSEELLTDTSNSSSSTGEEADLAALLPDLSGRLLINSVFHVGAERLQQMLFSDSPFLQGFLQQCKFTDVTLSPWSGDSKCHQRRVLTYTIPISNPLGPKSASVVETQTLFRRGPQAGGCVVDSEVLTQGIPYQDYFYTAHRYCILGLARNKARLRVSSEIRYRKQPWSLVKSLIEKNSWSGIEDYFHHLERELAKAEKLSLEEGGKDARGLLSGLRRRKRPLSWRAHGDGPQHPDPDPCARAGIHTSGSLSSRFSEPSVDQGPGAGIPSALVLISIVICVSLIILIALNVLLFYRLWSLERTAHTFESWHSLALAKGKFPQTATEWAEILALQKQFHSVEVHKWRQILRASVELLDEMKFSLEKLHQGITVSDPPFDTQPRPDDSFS
# UniProt P22352, whole entry, looked up: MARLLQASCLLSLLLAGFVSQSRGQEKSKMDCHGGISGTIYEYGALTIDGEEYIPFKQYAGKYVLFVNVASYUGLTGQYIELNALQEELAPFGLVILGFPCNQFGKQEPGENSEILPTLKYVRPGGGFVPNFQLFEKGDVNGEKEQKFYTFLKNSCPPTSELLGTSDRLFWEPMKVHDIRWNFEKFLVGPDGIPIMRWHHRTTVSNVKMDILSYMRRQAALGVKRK
# UniProt Q53GS7: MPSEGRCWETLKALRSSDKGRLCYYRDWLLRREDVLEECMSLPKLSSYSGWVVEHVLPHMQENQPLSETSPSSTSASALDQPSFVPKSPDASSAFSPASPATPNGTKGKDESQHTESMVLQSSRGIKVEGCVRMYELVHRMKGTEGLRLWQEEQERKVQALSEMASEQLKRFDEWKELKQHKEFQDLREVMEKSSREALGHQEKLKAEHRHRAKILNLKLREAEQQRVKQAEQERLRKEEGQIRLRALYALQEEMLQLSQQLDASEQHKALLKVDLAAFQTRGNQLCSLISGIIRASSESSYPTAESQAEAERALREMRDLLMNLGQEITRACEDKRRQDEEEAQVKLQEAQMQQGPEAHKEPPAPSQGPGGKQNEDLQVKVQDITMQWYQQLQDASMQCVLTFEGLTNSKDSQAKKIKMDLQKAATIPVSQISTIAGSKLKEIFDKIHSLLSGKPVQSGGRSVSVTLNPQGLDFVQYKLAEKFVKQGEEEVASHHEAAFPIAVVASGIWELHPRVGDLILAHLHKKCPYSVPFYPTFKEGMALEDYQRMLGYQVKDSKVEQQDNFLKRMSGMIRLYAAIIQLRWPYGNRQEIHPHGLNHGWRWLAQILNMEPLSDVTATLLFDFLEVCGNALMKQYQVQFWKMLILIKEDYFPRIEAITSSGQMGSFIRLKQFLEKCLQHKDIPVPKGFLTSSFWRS
# UniProt O94923: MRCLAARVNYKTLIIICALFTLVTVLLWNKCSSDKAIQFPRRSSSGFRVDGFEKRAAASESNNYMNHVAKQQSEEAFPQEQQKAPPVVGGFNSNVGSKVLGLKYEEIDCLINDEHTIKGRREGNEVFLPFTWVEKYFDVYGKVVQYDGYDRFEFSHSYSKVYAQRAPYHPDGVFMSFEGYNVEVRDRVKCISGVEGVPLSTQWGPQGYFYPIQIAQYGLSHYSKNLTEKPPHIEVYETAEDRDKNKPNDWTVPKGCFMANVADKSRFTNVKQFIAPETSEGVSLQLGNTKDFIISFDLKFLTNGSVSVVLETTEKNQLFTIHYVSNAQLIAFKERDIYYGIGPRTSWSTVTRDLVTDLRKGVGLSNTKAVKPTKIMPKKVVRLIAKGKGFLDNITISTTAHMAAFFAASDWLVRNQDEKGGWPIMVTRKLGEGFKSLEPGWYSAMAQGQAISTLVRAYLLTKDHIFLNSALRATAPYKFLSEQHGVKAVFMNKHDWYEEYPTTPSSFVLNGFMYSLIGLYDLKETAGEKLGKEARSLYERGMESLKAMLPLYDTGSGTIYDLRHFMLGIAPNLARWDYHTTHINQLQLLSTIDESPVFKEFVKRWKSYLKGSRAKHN
# UniProt Q5T3I0: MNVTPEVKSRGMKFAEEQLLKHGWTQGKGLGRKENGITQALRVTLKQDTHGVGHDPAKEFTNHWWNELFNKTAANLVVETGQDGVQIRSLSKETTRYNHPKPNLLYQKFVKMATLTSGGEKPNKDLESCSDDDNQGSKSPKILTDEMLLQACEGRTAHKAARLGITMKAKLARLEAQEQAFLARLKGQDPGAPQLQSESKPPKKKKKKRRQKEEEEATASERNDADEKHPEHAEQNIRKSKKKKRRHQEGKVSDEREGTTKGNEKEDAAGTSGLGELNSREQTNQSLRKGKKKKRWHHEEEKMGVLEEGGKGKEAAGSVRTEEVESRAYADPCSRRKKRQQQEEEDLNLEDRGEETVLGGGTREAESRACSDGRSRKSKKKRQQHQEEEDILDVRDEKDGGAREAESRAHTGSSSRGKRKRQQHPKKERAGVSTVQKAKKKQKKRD
# UniProt Q13227: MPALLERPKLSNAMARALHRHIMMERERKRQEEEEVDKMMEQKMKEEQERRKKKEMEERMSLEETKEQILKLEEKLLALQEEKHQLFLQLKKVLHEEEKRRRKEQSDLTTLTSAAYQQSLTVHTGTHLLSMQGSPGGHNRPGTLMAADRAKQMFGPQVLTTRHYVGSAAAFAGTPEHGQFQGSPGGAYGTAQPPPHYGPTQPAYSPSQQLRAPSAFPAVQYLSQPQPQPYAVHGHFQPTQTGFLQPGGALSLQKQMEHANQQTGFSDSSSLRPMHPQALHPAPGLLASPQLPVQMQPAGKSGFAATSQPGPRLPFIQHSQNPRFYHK
# UniProt Q6ZS86: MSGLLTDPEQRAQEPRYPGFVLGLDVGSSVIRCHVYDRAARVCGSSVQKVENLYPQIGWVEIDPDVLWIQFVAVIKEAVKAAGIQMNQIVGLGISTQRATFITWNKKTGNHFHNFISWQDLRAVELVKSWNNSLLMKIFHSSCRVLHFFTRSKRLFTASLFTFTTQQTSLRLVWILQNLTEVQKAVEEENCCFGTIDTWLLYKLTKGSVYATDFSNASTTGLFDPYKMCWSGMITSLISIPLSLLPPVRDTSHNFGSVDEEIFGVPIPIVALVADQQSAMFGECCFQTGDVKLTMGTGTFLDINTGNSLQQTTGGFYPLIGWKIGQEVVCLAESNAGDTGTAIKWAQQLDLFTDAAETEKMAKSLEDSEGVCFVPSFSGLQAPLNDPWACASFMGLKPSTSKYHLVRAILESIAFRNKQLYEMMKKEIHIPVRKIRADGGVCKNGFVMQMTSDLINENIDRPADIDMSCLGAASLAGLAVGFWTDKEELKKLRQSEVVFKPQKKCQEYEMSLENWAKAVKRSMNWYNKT
# Some of the results follow.
# How the values were obtained:
# Assay in all cases: log2 fold change, soluble protein after heating vs DMSO (PISA); higher = thermal stabilisation; K562 cells, 10 uM, 30 min; active = over 0.2 and 3.5 SD of the protein, either way, in both replicates (recomputed)
# [1] = compound: NC(=O)c1cnc(N[C@@H]2CCCC[C@@H]2N)nc1Nc1cccc(-n2nccn2)c1
# Method in brief: (§1)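 Quantification of soluble protein used TMTpro 16plex LC-MS/MS, with channel sums equalised. Samples were the supernatant after 21,000xg for 90 min of pooled aliquots from K562 cells (2×10^6 cells/mL) treated with 10 μM compound for 30 min, heated for 3 min over 48°C-58°C, and extracted in PBS with 0.5% NP-40 at 4°C. Values, from duplicates, describe thermal stability against control samples on a log2 fold-change scale.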
# [2] = compound: NCC(=O)Nc1ccc(-n2nc(C(F)(F)F)cc2-c2ccc3c(ccc4ccccc43)c2)cc1
# Method in brief: as §1
# vorinostat = compound: O=C(CCCCCCC(=O)Nc1ccccc1)NO [vorinostat]
# Method in brief: as §1
# citarinostat = compound: O=C(CCCCCCNC(=O)c1cnc(N(c2ccccc2)c2ccccc2Cl)nc1)NO [citarinostat]
# Method in brief: as §1
# [3] = compound: c1cc(OCCN2CCCCC2)cc(-c2n[nH]c3ccc(-c4nnc[nH]4)cc23)c1
# Method in brief: as §1
# [4] = compound: NC1(c2ccc(-c3nc4ccn5c(=O)[nH]nc5c4cc3-c3ccccc3)cc2)CCC1
# Method in brief: as §1
# silmitasertib = compound: O=C(O)c1ccc2c(c1)nc(Nc1cccc(Cl)c1)c1ccncc12 [silmitasertib]
# Method in brief: as §1
# [5] = compound: NC(=O)Nc1cc(-c2cccc(F)c2)sc1C(=O)N[C@H]1CCCNC1
# Method in brief: as §1
# entinostat = compound: Nc1ccccc1NC(=O)c1ccc(CNC(=O)OCc2cccnc2)cc1 [entinostat]
# Method in brief: as §1
# [6] = compound: O=C1NC(=O)C(c2cnc3ccccn23)=C1c1cn2c3c(cc(F)cc13)CN(C(=O)N1CCCCC1)CC2
# Method in brief: as §1
target,measurement,setting,value
GOLGA8R (UniProt I6L899),log2 fold change,[1],inactive: -0.1
same,log2 fold change,[2],inactive: 0.02
same,log2 fold change,vorinostat,inactive: 0.073
same,log2 fold change,citarinostat,inactive: 0.09
same,log2 fold change,[3],inactive: 0.006
GPS1 (UniProt A8K070),log2 fold change,[4],inactive: -0.002
same,log2 fold change,vorinostat,inactive: 0.002
same,log2 fold change,citarinostat,inactive: 0.004
same,log2 fold change,silmitasertib,inactive: 0.023
same,log2 fold change,[3],inactive: 0.056
GOLGA1 (UniProt Q92805),log2 fold change,[1],inactive: -0.057
same,log2 fold change,[2],inactive: -0.1
same,log2 fold change,vorinostat,inactive: -0.042
GRK6 isoform 2 (UniProt P43250),log2 fold change,[2],inactive: -0.077
GLS2 (UniProt Q9UI32),log2 fold change,[1],inactive: 0.005
GORAB (UniProt Q5T7V8),log2 fold change,[5],inactive: 0
same,log2 fold change,[2],inactive: -0.026
same,log2 fold change,entinostat,inactive: 0.114
same,log2 fold change,citarinostat,inactive: -0.141
same,log2 fold change,[3],inactive: 0.165
GINM1 (UniProt Q9NU53),log2 fold change,[5],inactive: -0.088
same,log2 fold change,[4],inactive: -0.211
same,log2 fold change,entinostat,inactive: 0.279
same,log2 fold change,vorinostat,inactive: 0.076
same,log2 fold change,citarinostat,inactive: 0.009
same,log2 fold change,silmitasertib,inactive: 0.055
same,log2 fold change,[6],inactive: 0.209
same,log2 fold change,[3],inactive: 0.106
GINS2 (UniProt Q9Y248),log2 fold change,[5],inactive: -0.086
same,log2 fold change,[4],inactive: -0.024
same,log2 fold change,[2],inactive: 0.022
same,log2 fold change,entinostat,active: 0.533
same,log2 fold change,vorinostat,inactive: -0.01
same,log2 fold change,citarinostat,inactive: 0.028
same,log2 fold change,silmitasertib,inactive: -0.031
same,log2 fold change,[6],inactive: -0.163
same,log2 fold change,[3],inactive: -0.026
GNG12 (UniProt Q9UBI6),log2 fold change,vorinostat,inactive: -0.029
GMIP (UniProt Q9P107),log2 fold change,[5],inactive: 0.017
same,log2 fold change,entinostat,inactive: 0.185
same,log2 fold change,[6],inactive: 0.053
GLT8D1 (UniProt Q68CQ7),log2 fold change,[1],inactive: 0.01
same,log2 fold change,vorinostat,inactive: -0.267
same,log2 fold change,citarinostat,inactive: -0.142
same,log2 fold change,[3],inactive: 0.084
GNL3L (UniProt Q9NVN8),log2 fold change,vorinostat,inactive: 0.157
GPR68 (UniProt Q15743),log2 fold change,[1],inactive: -0.044
GOLIM4 (UniProt F8W785),log2 fold change,[5],inactive: -0.077
same,log2 fold change,[2],inactive: 0.024
same,log2 fold change,entinostat,inactive: 0.013
same,log2 fold change,vorinostat,inactive: -0.119
same,log2 fold change,citarinostat,inactive: -0.01
same,log2 fold change,[6],inactive: -0.051
same,log2 fold change,[3],inactive: -0.01
GPCPD1 (UniProt Q9NPB8),log2 fold change,[5],inactive: 0.181
same,log2 fold change,[4],inactive: -0.162
same,log2 fold change,entinostat,inactive: 0.042
same,log2 fold change,vorinostat,inactive: 0.239
same,log2 fold change,citarinostat,inactive: 0.047
same,log2 fold change,silmitasertib,inactive: 0.039
same,log2 fold change,[6],inactive: -0.176
same,log2 fold change,[3],inactive: -0.009
GOLM1 (UniProt Q8NBJ4),log2 fold change,[5],inactive: 0.08
same,log2 fold change,[4],inactive: -0.001
same,log2 fold change,[2],inactive: 0.054
same,log2 fold change,entinostat,inactive: -0.016
same,log2 fold change,citarinostat,inactive: -0.207
same,log2 fold change,silmitasertib,inactive: 0.156
same,log2 fold change,[3],inactive: 0.053
GPNMB (UniProt Q14956),log2 fold change,citarinostat,inactive: -0.125
same,log2 fold change,[6],inactive: -0.015
same,log2 fold change,[3],inactive: 0.727
GIGYF1 (UniProt O75420),log2 fold change,[5],inactive: -0.152
same,log2 fold change,entinostat,inactive: 0.072
same,log2 fold change,vorinostat,inactive: 0.088
same,log2 fold change,[6],inactive: -0.032
GRAMD1A (UniProt Q96CP6),log2 fold change,[6],inactive: 0.083
GSDME (UniProt O60443),log2 fold change,citarinostat,inactive: 0.036
same,log2 fold change,[6],inactive: -0.209
same,log2 fold change,[3],inactive: -0.089
GPT2 (UniProt Q8TD30),log2 fold change,[1],inactive: 0.005
same,log2 fold change,[4],inactive: 0.445
same,log2 fold change,[2],inactive: -0.06
same,log2 fold change,vorinostat,inactive: 0.116
same,log2 fold change,silmitasertib,inactive: -0.085
GPX3 (UniProt P22352),log2 fold change,[1],inactive: 0.073
same,log2 fold change,[2],inactive: -0.043
same,log2 fold change,citarinostat,inactive: 0.009
same,log2 fold change,[6],inactive: 0.037
same,log2 fold change,[3],inactive: 0.114
GLE1 (UniProt Q53GS7),log2 fold change,[1],inactive: 0.059
GJA1 (UniProt P17302),log2 fold change,vorinostat,inactive: -0.015
GLCE (UniProt O94923),log2 fold change,[5],inactive: 0.031
same,log2 fold change,entinostat,inactive: -0.046
GPATCH4 isoform 3 (UniProt Q5T3I0),log2 fold change,[2],inactive: 0.499
same,log2 fold change,vorinostat,inactive: -0.035
same,log2 fold change,citarinostat,inactive: 0.032
same,log2 fold change,[6],inactive: 0.142
same,log2 fold change,[3],inactive: -0.363
GORASP1 (UniProt Q9BQQ3),log2 fold change,citarinostat,inactive: -0.093
same,log2 fold change,[6],inactive: 0.16
same,log2 fold change,[3],inactive: -0.096
GPS2 (UniProt Q13227),log2 fold change,[5],inactive: 0.041
same,log2 fold change,[4],inactive: 0.079
same,log2 fold change,[2],inactive: -0.106
same,log2 fold change,entinostat,inactive: -0.015
same,log2 fold change,citarinostat,inactive: -0.023
same,log2 fold change,silmitasertib,inactive: 0.031
same,log2 fold change,[6],inactive: -0.005
same,log2 fold change,[3],inactive: -0.092
GNPTG (UniProt Q9UJJ9),log2 fold change,[1],inactive: -0.054
same,log2 fold change,[4],inactive: -0.02
same,log2 fold change,vorinostat,inactive: -0.013
same,log2 fold change,silmitasertib,inactive: -0.021
same,log2 fold change,[6],inactive: 0.11
GNL2 (UniProt Q13823),log2 fold change,[4],inactive: -0.293
same,log2 fold change,vorinostat,inactive: -0.002
same,log2 fold change,citarinostat,inactive: -0.147
same,log2 fold change,silmitasertib,inactive: -0.101
same,log2 fold change,[6],inactive: 0.08
same,log2 fold change,[3],inactive: -0.279
GSE1 (UniProt Q14687),log2 fold change,[2],inactive: -0.044
GOLGA6B (UniProt A6NDN3),log2 fold change,[5],inactive: 0.048
same,log2 fold change,[4],inactive: -0.054
same,log2 fold change,[2],inactive: 0.001
same,log2 fold change,entinostat,inactive: 0.007
same,log2 fold change,vorinostat,inactive: 0.114
same,log2 fold change,silmitasertib,inactive: 0.022
same,log2 fold change,[6],inactive: 0.051
GK5 (UniProt Q6ZS86),log2 fold change,[1],inactive: 0.054
same,log2 fold change,[2],inactive: -0.02
same,log2 fold change,vorinostat,inactive: -0.158
same,log2 fold change,[6],inactive: -0.004
GPAM (UniProt Q9HCL2),log2 fold change,[5],inactive: 0
same,log2 fold change,[1],inactive: 0.135
same,log2 fold change,entinostat,inactive: 0.028
same,log2 fold change,vorinostat,inactive: 0.039
same,log2 fold change,[6],inactive: -0.144
GPC4 (UniProt O75487),log2 fold change,vorinostat,inactive: 0.307
GPATCH1 (UniProt Q9BRR8),log2 fold change,[5],inactive: 0.195
same,log2 fold change,[2],inactive: -0.193
same,log2 fold change,entinostat,inactive: 0.153
same,log2 fold change,citarinostat,inactive: 0.073
same,log2 fold change,[6],inactive: 0.083
same,log2 fold change,[3],inactive: -0.017
GPAA1 (UniProt E9PLG8),log2 fold change,[1],inactive: -0.016
same,log2 fold change,[4],inactive: -0.229
same,log2 fold change,vorinostat,inactive: -0.125
same,log2 fold change,citarinostat,inactive: 0.119
same,log2 fold change,silmitasertib,inactive: 0.061
same,log2 fold change,[3],inactive: -0.084
GOSR1 (UniProt E9PCW1),log2 fold change,[4],inactive: -0.117
same,log2 fold change,citarinostat,inactive: 0.077
same,log2 fold change,silmitasertib,inactive: -0.101
same,log2 fold change,[3],inactive: -0.143

# Rewritten with tabs: entries from further up
target	measurement	setting	value
GOLGA8R (UniProt I6L899)	log2 fold change	[1]	inactive: -0.1
GLT8D1 (UniProt Q68CQ7)	log2 fold change	vorinostat	inactive: -0.267
GPS2 (UniProt Q13227)	log2 fold change	[6]	inactive: -0.005

# A different layout for part of the listing above:
target	measurement	setting	value
GOLGA8R (UniProt I6L899)	log2 fold change	vorinostat	inactive: 0.073
GIGYF1 (UniProt O75420)	log2 fold change	vorinostat	inactive: 0.088
